These are yes or no findings as the source states them, for the method shown. In cells and extracts the contact can be indirect. Some results given as binding are weak or reduced against the parent protein; the word gives no strength. For some assays here: Sequences can lack the tags named with a protein. Each block holds one binder with its values, some of them ahead of it.
How the values were obtained:
Assay in all cases: co-IP
[1] = target: Myc-HOIP wildtype (human) (human) (UniProt Q96EP0)
[2] = target: Myc-HOIP-K784R (human) (human) (UniProt Q96EP0)
[3] = target: Myc-HOIP-C885A (human, catalytic inactive mutant) (human) (UniProt Q96EP0)
[4] = target: Recombinant human Flag-TNF (human) (UniProt P01375)
[5] = target: T1, FADD (mouse, endogenous in MEFs) (mouse (endogenous in MEFs)) (UniProt Q61160)
T1 sequence: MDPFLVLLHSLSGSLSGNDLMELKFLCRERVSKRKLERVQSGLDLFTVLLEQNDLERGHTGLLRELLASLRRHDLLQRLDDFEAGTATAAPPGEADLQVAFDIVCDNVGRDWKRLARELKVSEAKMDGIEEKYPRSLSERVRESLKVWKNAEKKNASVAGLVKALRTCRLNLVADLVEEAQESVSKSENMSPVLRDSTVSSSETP

Sequences of proteins named here, by UniProt entry; tags and fusion partners are left off. A change or cut given only in a name is not applied to a line headed by its entry. Residues count along the entry.
UniProt Q96EP0: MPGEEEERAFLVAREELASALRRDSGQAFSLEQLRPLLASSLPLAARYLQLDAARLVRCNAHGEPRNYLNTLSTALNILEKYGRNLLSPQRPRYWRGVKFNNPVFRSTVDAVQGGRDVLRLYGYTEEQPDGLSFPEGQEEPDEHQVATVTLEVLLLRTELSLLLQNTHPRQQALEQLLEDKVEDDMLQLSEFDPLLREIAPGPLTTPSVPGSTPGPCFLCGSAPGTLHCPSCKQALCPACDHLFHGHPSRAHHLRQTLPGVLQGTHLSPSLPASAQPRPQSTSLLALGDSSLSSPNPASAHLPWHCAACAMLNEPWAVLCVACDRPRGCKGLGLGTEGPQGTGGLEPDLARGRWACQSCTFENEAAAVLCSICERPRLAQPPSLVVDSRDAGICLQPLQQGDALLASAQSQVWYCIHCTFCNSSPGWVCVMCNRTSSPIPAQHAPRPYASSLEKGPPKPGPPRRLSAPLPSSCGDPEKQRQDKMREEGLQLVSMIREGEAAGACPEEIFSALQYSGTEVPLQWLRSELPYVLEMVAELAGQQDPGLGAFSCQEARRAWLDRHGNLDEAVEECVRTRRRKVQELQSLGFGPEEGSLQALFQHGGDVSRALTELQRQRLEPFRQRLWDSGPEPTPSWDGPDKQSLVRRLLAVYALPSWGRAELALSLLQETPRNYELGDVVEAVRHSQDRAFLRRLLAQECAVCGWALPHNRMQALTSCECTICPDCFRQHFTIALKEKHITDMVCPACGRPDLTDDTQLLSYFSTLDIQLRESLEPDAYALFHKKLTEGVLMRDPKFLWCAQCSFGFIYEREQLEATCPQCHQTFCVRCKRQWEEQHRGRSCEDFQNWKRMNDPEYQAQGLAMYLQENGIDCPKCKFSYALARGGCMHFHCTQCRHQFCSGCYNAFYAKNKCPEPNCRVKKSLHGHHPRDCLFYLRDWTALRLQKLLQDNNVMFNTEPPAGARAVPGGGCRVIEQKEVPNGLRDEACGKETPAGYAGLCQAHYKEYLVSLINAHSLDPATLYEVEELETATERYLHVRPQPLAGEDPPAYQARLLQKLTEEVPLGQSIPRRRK
UniProt P01375, residues 77-233: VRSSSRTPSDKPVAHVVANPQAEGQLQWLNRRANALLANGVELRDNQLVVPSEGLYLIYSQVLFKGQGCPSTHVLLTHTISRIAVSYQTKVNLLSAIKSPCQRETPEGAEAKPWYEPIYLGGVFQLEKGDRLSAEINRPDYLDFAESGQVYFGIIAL

binding [1]: binds | binding [2]: binds | binding [3]: binds
B1: Flag-SHARPIN (human) (protein, UniProt Q9H0F6 1-387)
chain: MAPPAGGAAAAASDLGSAAVLLAVHAAVRPLGAGPDAEAQLRRLQLSADPERPGRFRLELLGAGPGAVNLEWPLESVSYTIRGPTQHELQPPPGGPGTLSLHFLNPQEAQRWAVLVRGATVEGQNGSKSNSPPALGPEACPVSLPSPPEASTLKGPPPEADLPRSPGNLTEREELAGSLARAIAGGDEKGAAQVAAVLAQHRVALSVQLQEACFPPGPIRLQVTLEDAASAASAASSAHVALQVHPHCTVAALQEQVFSELGFPPAVQRWVIGRCLCVPERSLASYGVRQDGDPAFLYLLSAPREAPATGPSPQHPQKMDGELGRLFPPSLGLPPGPQPAASSLPSPLQPSWSCPSCTFINAPDRPGCEMCSTQRPCTWDPLAAAST

binding [4]: binds | binding [5]: binds
B2: SHARPIN (mouse, endogenous in MEFs) (protein, UniProt Q91WA6 1-380)
chain: MSPPAGGAAVAADPASPVVLLAVHAAVRPLGAGQDAEAQPRKLQLIADPERPGRFRLGLLGTEPGAVSLEWPLEAICYTVRGPNQHELQPPPGGPGTFSVHFLDPEEAQQWAALVRDATAEGQNGSGSPAPAPAPAMCPISPPCSSMAQIPKATQPEVDLPQSSGNFKKEELATRLSQAIAGGDEKAAAQVAAVLAQHHVALNVQLMEAWFPPGPIRLQVTVEDATSVLSSSSSAHVSLKIHPHCSIAALQDQVFSEFGFPPAVQRWVIGRCLCMPERSLASYGVSQDGDPAFLYLLSAPREVSGQSLQNSKMDRKLGLFPQSLGLPHDLQPSSSSLPSPSQPGWSCPSCTFINASNRPGCEMCSTQRPCAWDPLAAAST

From doi:10.1101/742544
